# Reference: paper PMC5996148
# Where “and” joins values, the source holds several entries; their conditions need not be identical. Identical values can stand only once. The list shows a part of the results.
# Assays:
# Test in all cases: protein microarray (ProtoArray v5.0), streptavidin-Alexa Fluor 647
# Settings in all cases: 3'-biotin; 20 mM Tris (pH 7.5), 5 mM MgCl2, 100 mM KCl, 0.1% Tween-20, A/T-rich and random oligonucleotide blockers; temperature not stated; high values mean tight binding
# [1] = test system: STXBP2 (human)
# [2] = test system: STYX (human)
# [3] = test system: SULT1A3 (human)
# [4] = test system: SULT1B1 (human)
# [5] = test system: SULT1C2 (human)
# [6] = test system: SULT1C4 (human)
# [7] = test system: SULT2B1 (human)
# [8] = test system: SURF4 (human)
# [9] = test system: SURF5 (human)
# [10] = test system: SUSD2 (human)
# [11] = test system: SUSD4 (human)
# [12] = test system: SWI/SNF-related matrix-associated actin-dependent regulator of chromatin subfamily D member 2 (human)
# [13] = test system: SYCE1 (human)
# [14] = test system: SYMPK (human)
# [15] = test system: SYNGR2 (human)
# [16] = test system: SYNGR4 (human)
# [17] = test system: SYNJ2BP (human)
# [18] = test system: SYS1 (human)
# [19] = test system: SYVN1 (human)
# [20] = test system: Scavenger receptor cysteine-rich domain-containing protein LOC284297 (human)
sequence,measurement,setting,value
GGGAGGCTGAGGCAGG [G4-1 biotinylated (PQS2)],binding signal,[1],-0.319 z-score
same,binding signal,[2],-0.321 z-score
same,binding signal,[3],-0.333 z-score
same,binding signal,[4],-0.344 z-score
same,binding signal,[5],-0.342 z-score
same,binding signal,[6],-0.337 z-score
same,binding signal,[7],-0.355 z-score
same,binding signal,[8],-0.343 z-score
same,binding signal,[9],-0.324 z-score
same,binding signal,[10],-0.269 z-score
same,binding signal,[11],-0.347 z-score
same,binding signal,[12],-0.352 z-score
same,binding signal,[13],-0.35 z-score and -0.335 z-score
same,binding signal,[14],-0.346 z-score
same,binding signal,[15],-0.34 z-score
same,binding signal,[16],-0.343 z-score
same,binding signal,[17],-0.324 z-score
same,binding signal,[18],-0.291 z-score
same,binding signal,[19],-0.323 z-score
same,binding signal,[20],-0.362 z-score
